From PubChem BioAssay AID493014 (National Center for Advancing Translational Sciences (NCATS), 2011)
This is one part of the list. Further columns of the screen follow, without active or inactive calls. Most of these compounds were active or inconclusive in the main read-out, so they are no random draw. The note in brackets gives the kind of curve behind each potency; many fits are weak.

Assay: qHTS Assay to Find Inhibitors of Chronic Active B-Cell Receptor Signaling
Settings: ABC-DLBCL IkBa-CBG/CBR reporter, luminescence ratio (green luciferase fused to IkBa over red control in TMD8 lymphoma cells), 4 h
Outline: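 Doxycycline induced both beetle luciferases in TMD8 lymphoma cells; IKK-driven degradation limits the IkappaBalpha-fused green signal, while red luminescence normalises for cell number and nonspecific effects. Compounds tested up to 46 uM, 4 hrs.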

[1] = measured here: CBR red luminescence, cell number
[2] = measured here: IkBa-CBG green luminescence

Row | Compound | AC50 [1] | AC50 [2]
1 | O=C(Cc1ccccc1)N1CCc2[nH]nc(-c3ccccc3)c2C1 | 0.1 µM [rising, full curve, poor fit] | –
2 | CCN(CC)C(=O)CSc1nc2cc3c(cc2c(=O)n1CCCCCC(=O)NCc1ccc(OC)cc1)OCO3 | 15.8 µM [rising, partial curve, poor fit] | –
3 | N#CCCn1cc(/C=C2\NC(=S)N(c3ccccc3)C2=O)c(-c2ccc(F)cc2)n1 | 6.31 µM [falling, partial curve, poor fit] | –
4 | COc1ccc(CN(C)C(=O)CNC(=O)c2ccc3ccccc3c2)c(OC)c1 | 25.1 µM [falling, single point] | –
5 | COc1ccc(-c2c(C#N)c(N)nc3c2CCc2ccccc2-3)cc1OC | 11.2 µM [falling, partial curve] | –
6 | Cc1csc(SC(C)c2nc3scc(-c4ccccc4)c3c(=O)[nH]2)n1 (configuration not stated) | 11.2 µM [rising, partial curve, poor fit] | –
7 | O=C(NCc1ccccn1)C1CC(c2ccccc2O)=NO1 (configuration not stated) | 11.2 µM [falling, single point] | –
8 | O=C(CN1C(=O)S/C(=C\c2ccccc2F)C1=O)NC1C=CS(=O)(=O)C1 (configuration not stated) | 6.31 µM [falling, full curve] | –
9 | O=C(CC(c1ccco1)S(=O)(=O)c1ccccc1)c1ccc(F)cc1 (configuration not stated) | 29.1 µM [falling, single point] | –
10 | COc1cc2c(cc1OC)C(c1ccc(Br)cc1)NC(=O)C2 (configuration not stated) | – | 22.4 µM [falling, single point]
11 | CN(C)S(=O)(=O)c1cccn1-c1ncc(C(F)(F)F)cc1Cl | 29.1 µM [rising, single point] | –
12 | COc1ccccc1NS(=O)(=O)c1ccc2c(c1)n(C)c(=O)n2C | 7.31 µM [falling, partial curve] | 11.6 µM [rising, partial curve, poor fit]
13 | COc1ccc(C(=O)N2CCN(CCNC(=O)C(=O)Nc3ccc(F)cc3)CC2)cc1OC | 0.447 µM [falling, full curve, poor fit] | –
14 | O=C1/C(=C\c2ccncc2)CCc2ccccc21 | 20.6 µM [falling, single point] | –
15 | N=C1C=CC=C2C1=NC1(CCCCC1)N2O | 20.6 µM [rising, single point] | –
16 | COc1ccccc1CNC(=O)COC(=O)C1CCN(S(=O)(=O)c2ccccc2)CC1 | 29.1 µM [falling, single point] | 29.1 µM [rising, partial curve, poor fit]
17 | CC(C)(C)N/N=C/c1c(O)n(-c2ccc(Cl)cn2)c(=O)c2ccccc12 | 16.4 µM [falling, partial curve] | –
18 | CC[n+]1c(/C=C/N(C)c2ccccc2)oc2ccccc21 | 14.6 µM [falling, partial curve, poor fit] | –
19 | Cc1cc(C)n(Cc2ccc(NC(=O)c3ccc(COc4ccccc4Br)cc3)cc2)n1 | 14.1 µM [falling, partial curve, poor fit] | –
20 | CCOC(=O)c1nc2nc(-c3cccs3)cc(C(F)(F)F)n2n1 | 11.6 µM [rising, partial curve, poor fit] | –
21 | Cc1nc(Nc2ccc(S(N)(=O)=O)cc2)sc1-c1ccccc1 | 35.5 µM [rising, single point] | –
22 | CCC(=O)Nc1ccc(C(=O)Nc2cc(C)on2)cc1 | 0.82 µM [falling, full curve, poor fit] | –

Single values from above:
Entry of N#CCCn1cc(/C=C2\NC(=S)N(c3ccccc3)C2=O)c(-c2ccc(F)cc2)n1 under AC50 [1]: 6.31 µM [falling, partial curve, poor fit]
Entry of O=C(CN1C(=O)S/C(=C\c2ccccc2F)C1=O)NC1C=CS(=O)(=O)C1 (configuration not stated) under AC50 [1]: 6.31 µM [falling, full curve]
Entry of O=C(Cc1ccccc1)N1CCc2[nH]nc(-c3ccccc3)c2C1 under AC50 [1]: 0.1 µM [rising, full curve, poor fit]

(listing goes on)

Row | Compound | AC50 [1] | AC50 [2]
23 | COC(=O)COc1ccc2c(-c3cccc([N+](=O)[O-])c3)cc(=O)oc2c1 | 15.8 µM [falling, partial curve] | –
24 | Cc1ccc(-c2nnc3n2N=C(c2ccccc2)CS3)cc1 | 1.84 µM [falling, partial curve, poor fit] | –
25 | Cc1ccc(O)c(-c2[nH]ncc2C(=O)c2ccc(Cl)cc2)c1 | 20 µM [falling, single point] | –
26 | O=C(Nc1cc(Cl)cc(Cl)c1)C1CCCC1 | 0.112 µM [rising, full curve, poor fit] | –
27 | CCOC(=O)COc1ccc(C(=O)c2ccccc2)c(O)c1 | 0.112 µM [rising, full curve, poor fit] | –
28 | O=C(Nc1ccc([N+](=O)[O-])cc1)C1COc2ccccc2O1 (configuration not stated) | 3.55 µM [rising, full curve] | –
29 | C/C(=N\NC(=O)c1cccc(Br)c1)c1ccccn1 | 5.62 µM [rising, single point] | –
30 | CC(CNC(=O)c1ccc(N)cc1)NC(=O)c1ccc(N)cc1 (configuration not stated) | 28.2 µM [falling, single point] | –
31 | CC(C)N(C(=O)[C@H]1CC(CC(=O)NCCCN(C)C)C(=O)N2CCc3c([nH]c4ccccc34)[C@]12C)C(C)C (some centres not stated) | 1.84 µM [rising, partial curve, poor fit] | –
32 | O=C(O)C1CCCCC1C(=O)NCCCCc1ccccc1 (configuration not stated) | 11.2 µM [rising, single point] | –
33 | COc1cccc(OCc2nn3c(=O)c(-c4ccccc4)nnc3s2)c1 | 0.562 µM [rising, full curve, poor fit] | –
34 | COc1cccc(CN(C)C(=O)COc2ccc(C(=O)c3ccc(Cl)cc3)cc2)c1OC | 35.5 µM [falling, single point] | –
35 | CCCCCCSc1nc(O)c(C2OC(=O)c3c2ccc(OC)c3OC)c(=O)n1CC (configuration not stated) | 1.16 µM [falling, full curve, poor fit] | –
36 | O=C(CSc1ccc2ccccc2n1)N/N=C/c1ccccc1O | 1.58 µM [falling, full curve] | –
37 | Cc1nc2ncnn2c(C)c1Cc1ccccc1Cl | 1.3 µM [falling, partial curve, poor fit] | –
38 | CC(=O)c1sc(NC(=O)c2c(F)cccc2F)nc1-c1ccccc1 | 1.12 µM [falling, partial curve, poor fit] | –
39 | COc1ccc(NC(=O)c2ccc(S(=O)(=O)N3CCOCC3)cc2)c(OC)c1 | 3.26 µM [rising, single point] | –
40 | O=C(/C=C/c1ccccc1)Nc1nc(-c2ccncc2)cs1 | 0.562 µM [rising, full curve, poor fit] | –
41 | CCOc1cc(C(=O)Nc2ccc(F)cc2)cc(Br)c1OC | 32.6 µM [falling, single point] | –
42 | Cc1ccccc1CN(c1ccc(C(=O)N2CCc3ccccc3C2)cc1)S(C)(=O)=O | 6.31 µM [rising, single point] | –
43 | Cc1cccc(C)c1Nc1c(-c2ccccc2O)nc2ncccn12 | 0.794 µM [falling, full curve, poor fit] | –
44 | Cn1c(=O)c2cc(S(=O)(=O)Nc3ccc4c(c3)OCO4)ccc2n(C)c1=O | 20.6 µM [falling, single point] | –

Row | Compound | AC50 [1] | AC50 [2]
45 | Brc1ccc(-c2csc(N3CCOCC3)n2)cc1 | 12.6 µM [rising, partial curve, poor fit] | –
46 | CC(=O)NNc1nc(-c2ccccc2)cs1 | 17.8 µM [falling, single point] | –
47 | Cc1oc2c(c(C)cc3oc(=O)c(CC(=O)NCC(=O)NCC(=O)NCC(C)O)c(C)c32)c1C (configuration not stated) | 3.98 µM [rising, partial curve, poor fit] | –
48 | Cc1ccc(C(=O)Nc2ccc(F)cc2)cc1S(=O)(=O)N1CCOCC1 | 3.98 µM [rising, partial curve, poor fit] | –
49 | COc1ccc2oc(=O)c(C(=O)N3CCCc4ccccc43)cc2c1 | 32.6 µM [rising, single point] | –
50 | NNC(=O)c1[nH]c2ccc(Br)cc2c1-c1ccccc1 | 6.31 µM [rising, full curve] | 3.98 µM [falling, full curve]
51 | COc1ccc(CNc2cc(C)ccn2)c(O)c1 | 11.2 µM [rising, partial curve] | –
52 | O=C(N/C(=C/c1ccccc1F)C(=O)N1CCCCC1)c1ccccc1 | 35.5 µM [rising, single point] | –
53 | O=C(NNC(=O)c1ccc[nH]1)c1cc(Cl)cc(Cl)c1 | 22.4 µM [falling, single point] | –
54 | O=C(c1ccc(F)c(S(=O)(=O)N2CCOCC2)c1)N1CCN(c2ncccn2)CC1 | 2.91 µM [rising, partial curve, poor fit] | –
55 | COC(=O)N/N=C/c1cc(N=Nc2ccccc2Cl)ccc1O | 1.12 µM [rising, full curve] | –
56 | Cc1ccsc1C(=O)N1CCN(C(=O)c2ccco2)CC1 | 29.1 µM [rising, single point] | –
57 | O=C(OCC(=O)c1ccc[nH]1)c1ccc(S(=O)(=O)N2CCCCC2)cc1 | 0.461 µM [falling, full curve, poor fit] | –
58 | COc1ccc(CN(CCC#N)C(=S)NC(=O)c2ccccc2)cc1 | 3.16 µM [rising, single point] | –
59 | COc1ccc(Nc2c3c(nc4ccccc24)CCC3)cc1 | 20 µM [falling, partial curve, poor fit] | –
60 | C/C(=N\Nc1ccc(Cl)c(C(=O)O)c1)c1cc2ccccc2o1 | 35.5 µM [falling, single point] | –
61 | CO/N=C/c1cc([N+](=O)[O-])ccc1Sc1ccc(C)cc1 | 0.461 µM [rising, full curve] | –
62 | CC(/C=N/NC(=O)c1cc(-c2cccs2)[nH]n1)=C\c1ccccc1 | 2.06 µM [falling, full curve] | –
63 | CCOc1cc(/C=C2/COc3ccccc3C2=O)ccc1OCC(=O)N(C)C | 6.31 µM [falling, full curve] | –
64 | CCOC(=O)Cc1csc(NC(=O)c2ccc(Cl)s2)n1 | 4.47 µM [falling, full curve, poor fit] | –
